From publication PMC10712050
Results are given in words; binding and its absence hold for the method and conditions named. Binding seen in cells or lysates may run through a third protein. Here binding means that the protein was enriched with, or labelled near, the bait; the list need not be complete.

Chains of the proteins cited; added tags and fusions are not shown. Lines headed by an entry give the natural chain unless they say otherwise; changes in a name come on top.
UniProt P03953: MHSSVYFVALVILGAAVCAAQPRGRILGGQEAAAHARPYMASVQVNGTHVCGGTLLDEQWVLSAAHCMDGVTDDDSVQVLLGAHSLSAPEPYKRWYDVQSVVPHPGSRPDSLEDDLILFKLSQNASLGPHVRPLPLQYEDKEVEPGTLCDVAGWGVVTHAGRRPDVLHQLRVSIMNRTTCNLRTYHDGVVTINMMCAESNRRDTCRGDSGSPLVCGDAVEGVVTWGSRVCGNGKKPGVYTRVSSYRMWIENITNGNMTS

Target: GST-Adipsin fusion protein (UniProt P03953)
Assay: affinity purification with mass spectrometry; GST-Adipsin immobilised on glutathione agarose (Pierce GST Protein Interaction Pull Down kit), prey from primary cardiomyocyte lysate, eluted complexes analysed by LC-MS/MS; only the target purified

binding: binds
B1: interleukin-1 receptor-associated kinase-like 2 (Irak2) (protein, UniProt Q8CFA1 1-622)
chain: MACYIYQLPSWVLDDLCRNIDTLSEWDWMQFASYVITDLTQLRKIKSMERVQGVSITRELLWWWSMRQATVQQLVDLLCHLELYRAAQIVLSWKPVPESTSPLPAFPEAVKPGAVATSRRNLKDEQEKVRPVKPRSLLDTGPIMAGAQRQRPCEMDAPCSLKTDAPDSPQSKYCSTSTSAPKQERLLGLPGDRLFWSEADVVQATEDFDQSHRISEGTFADIYQGQRNGVAFAFKKLREVAGSSPGSMDRFLQAEMQLCLRCCHANVLPLLGFCTGRQFHSLIYPYMANGSLHDRLWAQGNSDMLPWPQRASICSGLLLAVEHLHSLDIIHSNVKSANVLLDQHLNPKLAHPVAHPHPDNKKTKYTVMRTHLFQASAAYLPEHFIRVGQLTKQVDIFSCGIVLAEVLTGIPAMDKDRSPVYLKDLLLSEIPNSTSSVCSRKTSMGKAVVKEICQRHVEKRAGLLPEACEEAWATAVSVCLRRRNASVEEARVSLAGVEEQLRGQLSLPWSRVSEATGSSSNTPEETDDVDNSSLSVPSLVMMASCPGAASSPLFTGHGAAQPSTSGRQEADSSSEACTGPQTPQNATETSWKIEINEAKRRLMENIVLYKEERLDSSELFGP
